PubChem BioAssay AID226 (DTP/NCI, 2004)
The list shows only some results of the screen, not a fair sample: it gathers tests that were run many times, whatever their T/C, doses with no T/C, and many T/C values between a quarter and a half above the control. Other doses and runs of a compound stand elsewhere. T/C is the treated group as % of the vehicle group. Some entries give survivors of the animals treated and no T/C: the source holds a T/C of zero for them, seemingly a mark for toxic or unscored doses. Some survivor counts are full or nearly so, which does not show that the dose was tolerated: survival well below the control is almost never listed, so the zero probably covers shortened survival too. Survivors were counted at the toxicity check, usually on the fifth day, unless a day is given; later deaths do not show. Schedules are NCI's codes, read here as Q, the interval in days (D) or hours (H), X, the number of doses. Some entries hold several experiments; the values are given in rising order. For survival time, this PubChem deposit counts one and a half times the control or more as active, and values a quarter to a half above the control carry no call in these data; other NCI protocols may use other cut-offs. Brackets with × give the number of equal values in this list. Some T/C values are followed by the survivors on the day toxicity was checked, most often the fifth; without a count, all were alive then.

Test system: B6C3F1 mice, intracerebral ependymoblastoma, median survival T/C
Assay: NCI In Vivo Anticancer Drug Screen. Data for tumor model Ependymoblastoma (intracerebral) in B6C3F1 mice
Settings: T/C endpoint: median survival time, higher T/C = longer survival
Protocol: The antitumor activity of compounds was measured in mice bearing transplantable tumors. Survival or tumor size were measured and the results are expressed as the measurement made in the treated group (T) divided by the measurement made in the vehicle treated control group (C). The tumor model used in this assay is Ependymoblastoma (intracerebral) in B6C3F1 mice

[1] = dose: 128.0 mg/kg/injection, schedule: Q01DX001 (ip), vehicle: saline with Tween-80
[2] = dose: 256.0 mg/kg/injection, schedule: Q01DX001 (ip), vehicle: saline with Tween-80
[3] = dose: 256.0 mg/kg/injection, schedule: Q01DX005 (ip), vehicle: saline with Tween-80
[4] = dose: 16.0 mg/kg/injection, schedule: Q01DX005 (ip), vehicle: Klucel (hydroxypropylcellulose) (HPC)
[5] = dose: 16.0 mg/kg/injection, schedule: Q01DX005 (ip), vehicle: saline
[6] = dose: 100.0 mg/kg/injection, schedule: Q01DX001 (ip), vehicle: Klucel (hydroxypropylcellulose) (HPC)
[7] = dose: 200.0 mg/kg/injection, schedule: Q01DX001 (ip), vehicle: Klucel (hydroxypropylcellulose) (HPC)
[8] = dose: 400.0 mg/kg/injection, schedule: Q01DX001 (ip), vehicle: Klucel (hydroxypropylcellulose) (HPC)
[9] = dose: 800.0 mg/kg/injection, schedule: Q01DX001 (ip), vehicle: Klucel (hydroxypropylcellulose) (HPC)

Nc1nncs1
T/C [1]: 101 [survivors not given], 106 [survivors not given], 108, 110 % of control [survivors not given]
T/C (dose: 128.0 mg/kg/injection, schedule: Q01DX005 (ip), vehicle: saline with Tween-80): 125 % of control
T/C [2]: 106 [survivors not given], 111 [survivors not given], 113, 115 % of control [survivors not given]
survivor count [3]: 10 of 10
T/C (dose: 512.0 mg/kg/injection, schedule: Q01DX001 (ip), vehicle: saline with Tween-80): 105 [survivors not given], 108 [survivors not given], 112, 117 % of control [survivors not given]
survivor count (dose: 512.0 mg/kg/injection, schedule: Q01DX005 (ip), vehicle: saline with Tween-80): 8 of 10
T/C (dose: 1024.0 mg/kg/injection, schedule: Q01DX001 (ip), vehicle: saline with Tween-80): 101 [survivors not given], 108, 110 [survivors not given], 123 % of control [survivors not given]

COC1C(O)C(C)OC(OC2C(Oc3cccc4c(O)c5c(=O)oc6ccc(C)c7c(=O)oc(c34)c5c67)OC(C)C(O)C2O)C1O (stereo unspecified)
survivor count [3]: 0 of 10
survivor count (dose: 256.0 mg/kg/injection, schedule: Q01DX005 (ip), vehicle: saline): 0 of 10

COC1OC(CNC(=O)N(CCCl)N=O)C(O)C(O)C1O (stereo unspecified)
T/C (dose: 16.0 mg/kg/injection, schedule: Q01DX001 (ip), vehicle: saline): 125 % of control
T/C (dose: 32.0 mg/kg/injection, schedule: Q01DX001 (ip), vehicle: saline): 137 and 138 % of control

CC(=O)CC(c1ccccc1)c1c(O)c2ccccc2oc1=O (stereo unspecified)
survivor count (dose: 1.6 mg/kg/injection, schedule: Q01DX005 (ip), vehicle: Klucel (hydroxypropylcellulose) (HPC)): 8 of 10

COc1cc(NS(C)(=O)=O)ccc1Nc1c2ccccc2nc2ccccc12
survivor count (dose: 8.0 mg/kg/injection, schedule: Q01DX005 (ip), vehicle: Klucel (hydroxypropylcellulose) (HPC)): 10 of 10
survivor count [4]: 10 of 10
survivor count [5]: 8 of 10 and 10 of 10
survivor count (dose: 16.0 mg/kg/injection, schedule: Q01DX005 (ip), vehicle: water): 10 of 10

CC/C(=C(/CC)c1ccc(O)cc1)c1ccc(O)cc1
T/C (dose: 32.0 mg/kg/injection, schedule: Q01DX001 (ip), vehicle: saline with Tween-80): 95 [survivors not given], 99, 99 [survivors not given], 103 % of control [survivors not given]
T/C (dose: 64.0 mg/kg/injection, schedule: Q01DX001 (ip), vehicle: saline with Tween-80): 89 [survivors not given], 101 [survivors not given], 103, 106 % of control [survivors not given]
T/C [1]: 99 [survivors not given], 100 [survivors not given], 102 [survivors not given], 104 % of control
T/C [2]: 91 [survivors not given], 94, 96 [survivors not given], 111 % of control [survivors not given]

COc1ccc2cc1Oc1ccc(cc1)C[C@H]1c3cc(c(OC)cc3CCN1C)Oc1c(OC)c(OC)cc3c1[C@H](C2)N(C)CC3
T/C [6]: 98 [survivors not given], 100, 100 [survivors not given], 105 % of control [survivors not given]
T/C [7]: 97 [survivors not given], 103, 105 [survivors not given], 123 % of control [survivors not given]
T/C [8]: 94 [survivors not given], 95 [survivors not given], 104, 114 % of control [survivors not given]
T/C [9]: 92 [survivors not given], 99, 103 [survivors not given], 109 % of control [survivors not given]

Nc1nc(=S)c2ncn(C3OC(COC(=O)c4ccccc4)C(OC(=O)c4ccccc4)C3OC(=O)c3ccccc3)c2[nH]1 (stereo unspecified)
survivor count (dose: 100.0 mg/kg/injection, schedule: Q01DX005 (ip), vehicle: saline with Tween-80): 10 of 10

O=C1C(NCC(O)CO)=C(N2CC2)C(=O)C(NCC(O)CO)=C1N1CC1 (stereo unspecified)
T/C (dose: 2.0 mg/kg/injection, schedule: Q01DX005 (ip), vehicle: saline): 125 % of control
T/C (dose: 4.0 mg/kg/injection, schedule: Q01DX005 (ip), vehicle: saline): 135 % of control
T/C (dose: 8.0 mg/kg/injection, schedule: Q01DX005 (ip), vehicle: saline): 140 % of control
survivor count [5]: 10 of 10

CCOC(=O)CNC(=O)CCCCSc1ncnc2nc[nH]c12
survivor count (dose: 256.0 mg/kg/injection, schedule: Q01DX005 (ip), vehicle: Klucel (hydroxypropylcellulose) (HPC)): 10 of 10
survivor count (dose: 1024.0 mg/kg/injection, schedule: Q01DX001 (oral), vehicle: Klucel (hydroxypropylcellulose) (HPC)): 10 of 10
survivor count (dose: 2048.0 mg/kg/injection, schedule: Q01DX005 (ip), vehicle: saline): 10 of 10

O=P1(NCCCl)OCCC(OO)N1CCCl (stereo unspecified)
T/C (dose: 80.0 mg/kg/injection, schedule: Q01DX001 (ip), vehicle: Klucel (hydroxypropylcellulose) (HPC)): 137 % of control
T/C (dose: 160.0 mg/kg/injection, schedule: Q01DX001 (ip), vehicle: Klucel (hydroxypropylcellulose) (HPC)): 125 % of control (2×)
T/C (dose: 320.0 mg/kg/injection, schedule: Q01DX001 (ip), vehicle: Klucel (hydroxypropylcellulose) (HPC)): 125 % of control

CC1CN1C(=O)NCCCCCCNC(=O)N1CC1C (stereo unspecified)
survivor count (dose: 20.0 mg/kg/injection, schedule: Q01DX005 (ip), vehicle: Klucel (hydroxypropylcellulose) (HPC)): 10 of 10

CN1CC[C@]23c4c5ccc(O)c4O[C@H]2C(=O)CC[C@H]3[C@H]1C5
survivor count (dose: 50.0 mg/kg/injection, schedule: Q01DX005 (iv), vehicle: saline): 0 of 6

CC(=O)NNC(=O)c1ccccn1
T/C [6]: 100, 101 [survivors not given] (2×), 106 % of control [survivors not given]
T/C [7]: 91 [survivors not given], 99, 104 [survivors not given], 115 % of control [survivors not given]
T/C [8]: 92 [8 of 10 alive], 100 [survivors not given], 101 % of control [survivors not given]
survivor count [9]: 0 of 10
survivor count (dose: 800.0 mg/kg/injection, schedule: Q01DX005 (ip), vehicle: Klucel (hydroxypropylcellulose) (HPC)): 0 of 10 and 1 of 10

CC(=O)OC1COC(NC(=O)N(CCCl)N=O)C(OC(C)=O)C1OC(C)=O (stereo unspecified)
T/C (dose: 0.75 mg/kg/injection, schedule: Q01DX009 (ip), vehicle: saline with Tween-80): 125 % of control
T/C (dose: 1.5 mg/kg/injection, schedule: Q01DX009 (ip), vehicle: saline with Tween-80): 147 % of control
T/C (dose: 3.0 mg/kg/injection, schedule: Q01DX005 (ip), vehicle: saline with Tween-80): 128 % of control
T/C (dose: 6.0 mg/kg/injection, schedule: Q01DX005 (ip), vehicle: saline with Tween-80): 146 % of control
survivor count (dose: 12.0 mg/kg/injection, schedule: Q01DX005 (ip), vehicle: saline with Tween-80): 3 of 10

O=C(O)CCCc1ccc(N(CCCl)CCCl)cc1
T/C (dose: 2.0 mg/kg/injection, schedule: Q01DX005 (ip), vehicle: saline with Tween-80): 128 % of control
T/C (dose: 4.0 mg/kg/injection, schedule: Q01DX005 (ip), vehicle: saline with Tween-80): 135 % of control
survivor count [4]: 10 of 10
survivor count (dose: 32.0 mg/kg/injection, schedule: Q01DX005 (ip), vehicle: Klucel (hydroxypropylcellulose) (HPC)): 9 of 10
